Taken from: PubChem BioAssay AID1224830 (NIAID, 2016)

Screen: 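Genes whose knock-down alters the TNF-alpha reporter response to LPS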 (primary screen)
System: human THP-1 monocytic leukaemia cells, TNF dual-luciferase reporter clone, PMA-differentiated to macrophage-like cells
Reagents: siRNA pool against human genes, 50 nM
Time to read-out: LPS for 4 h, given about 3 days after siRNA transfection
Treatment: bacterial LPS (TLR4 ligand), 10 ng/ml
Read-out: 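TNF firefly reporter luminescence divided by renilla, normalised to the plate median, then turned into a robust z-score for each replicate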
Reading the numbers: TNF reporter robust z-score: higher = stronger TNF reporter response to LPS
Active means: 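Each well counts as active if its z-score is over 2.8 or under -1.5; controls are left without a call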
The whole screen tested about 18,000 reagents; shown is a random part of them. About 2,900 of them (16%) were called active. 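Calls are made per well; low scores hint the gene aids the LPS response, high scores that it dampens it.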 Repeated entries: four replicate wells of each siRNA pool. Reagent sequences are not shown.

BACE2 → TNF reporter robust z-score: -0.29; outcome: inactive
BACE2 → TNF reporter robust z-score: -0.4; outcome: inactive
BACE2 → TNF reporter robust z-score: -0.73; outcome: inactive
FRMD6 → TNF reporter robust z-score: 1.68; outcome: inactive
FRMD6 → TNF reporter robust z-score: -1.02; outcome: inactive
FRMD6 → TNF reporter robust z-score: 1.28; outcome: inactive
FRMD6 → TNF reporter robust z-score: 0.78; outcome: inactive
WNK3 → TNF reporter robust z-score: -1.47; outcome: inactive
WNK3 → TNF reporter robust z-score: -1.62; outcome: active
WNK3 → TNF reporter robust z-score: -1.71; outcome: active
WNK3 → TNF reporter robust z-score: -1.2; outcome: inactive
FBXL13 → TNF reporter robust z-score: -0.27; outcome: inactive
FBXL13 → TNF reporter robust z-score: 1.52; outcome: inactive
FBXL13 → TNF reporter robust z-score: 1.3; outcome: inactive
FBXL13 → TNF reporter robust z-score: 4.74; outcome: active
UBAP1 → TNF reporter robust z-score: -0.04; outcome: inactive
UBAP1 → TNF reporter robust z-score: 0.18; outcome: inactive
UBAP1 → TNF reporter robust z-score: -0.83; outcome: inactive
UBAP1 → TNF reporter robust z-score: -0.7; outcome: inactive
COL4A3 → TNF reporter robust z-score: -0.66; outcome: inactive
COL4A3 → TNF reporter robust z-score: -0.52; outcome: inactive
COL4A3 → TNF reporter robust z-score: -0.68; outcome: inactive
COL4A3 → TNF reporter robust z-score: -0.5; outcome: inactive
CACNA2D3 → TNF reporter robust z-score: 0.62; outcome: inactive
CACNA2D3 → TNF reporter robust z-score: -0.72; outcome: inactive
CACNA2D3 → TNF reporter robust z-score: -0.28; outcome: inactive
CACNA2D3 → TNF reporter robust z-score: -0.38; outcome: inactive
SNX6 → outcome: inactive
SNX6 → TNF reporter robust z-score: 0.13; outcome: inactive
SNX6 → TNF reporter robust z-score: -0.46; outcome: inactive
SNX6 → TNF reporter robust z-score: -0.49; outcome: inactive
SNX6 → TNF reporter robust z-score: -0.31; outcome: inactive
COX11 → TNF reporter robust z-score: 1.07; outcome: inactive
COX11 → TNF reporter robust z-score: 11; outcome: active
COX11 → TNF reporter robust z-score: 2.17; outcome: inactive
COX11 → TNF reporter robust z-score: 0.61; outcome: inactive
SLC7A11 → TNF reporter robust z-score: -0.4; outcome: inactive
SLC7A11 → TNF reporter robust z-score: 0.7; outcome: inactive
SLC7A11 → TNF reporter robust z-score: -0.61; outcome: inactive
SLC7A11 → TNF reporter robust z-score: 0.42; outcome: inactive
SLC30A8 → TNF reporter robust z-score: 0.71; outcome: inactive
SLC30A8 → TNF reporter robust z-score: 1.17; outcome: inactive
SLC30A8 → TNF reporter robust z-score: 2.05; outcome: inactive
SLC30A8 → TNF reporter robust z-score: 2.57; outcome: inactive
PTPN18 → TNF reporter robust z-score: -0.79; outcome: inactive
PTPN18 → TNF reporter robust z-score: -0.43; outcome: inactive
PTPN18 → TNF reporter robust z-score: 1.06; outcome: inactive
PTPN18 → TNF reporter robust z-score: 0.12; outcome: inactive
